Source: the supplement of paper PMC10849652
The list shows a part of the results.

Protein sequences, listed by entry. Tags and fused reporters are not part of them. Lines headed by an entry give the natural chain unless they say otherwise; changes in a name come on top.
UniProt P14550: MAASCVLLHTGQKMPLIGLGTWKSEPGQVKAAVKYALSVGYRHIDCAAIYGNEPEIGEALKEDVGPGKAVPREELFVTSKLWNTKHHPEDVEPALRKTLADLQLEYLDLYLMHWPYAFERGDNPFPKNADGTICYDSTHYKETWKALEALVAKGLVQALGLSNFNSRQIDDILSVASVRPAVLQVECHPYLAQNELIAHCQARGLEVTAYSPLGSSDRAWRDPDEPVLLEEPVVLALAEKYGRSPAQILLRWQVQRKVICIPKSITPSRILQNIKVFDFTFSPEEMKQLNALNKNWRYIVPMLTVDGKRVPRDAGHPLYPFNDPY
UniProt Q92667: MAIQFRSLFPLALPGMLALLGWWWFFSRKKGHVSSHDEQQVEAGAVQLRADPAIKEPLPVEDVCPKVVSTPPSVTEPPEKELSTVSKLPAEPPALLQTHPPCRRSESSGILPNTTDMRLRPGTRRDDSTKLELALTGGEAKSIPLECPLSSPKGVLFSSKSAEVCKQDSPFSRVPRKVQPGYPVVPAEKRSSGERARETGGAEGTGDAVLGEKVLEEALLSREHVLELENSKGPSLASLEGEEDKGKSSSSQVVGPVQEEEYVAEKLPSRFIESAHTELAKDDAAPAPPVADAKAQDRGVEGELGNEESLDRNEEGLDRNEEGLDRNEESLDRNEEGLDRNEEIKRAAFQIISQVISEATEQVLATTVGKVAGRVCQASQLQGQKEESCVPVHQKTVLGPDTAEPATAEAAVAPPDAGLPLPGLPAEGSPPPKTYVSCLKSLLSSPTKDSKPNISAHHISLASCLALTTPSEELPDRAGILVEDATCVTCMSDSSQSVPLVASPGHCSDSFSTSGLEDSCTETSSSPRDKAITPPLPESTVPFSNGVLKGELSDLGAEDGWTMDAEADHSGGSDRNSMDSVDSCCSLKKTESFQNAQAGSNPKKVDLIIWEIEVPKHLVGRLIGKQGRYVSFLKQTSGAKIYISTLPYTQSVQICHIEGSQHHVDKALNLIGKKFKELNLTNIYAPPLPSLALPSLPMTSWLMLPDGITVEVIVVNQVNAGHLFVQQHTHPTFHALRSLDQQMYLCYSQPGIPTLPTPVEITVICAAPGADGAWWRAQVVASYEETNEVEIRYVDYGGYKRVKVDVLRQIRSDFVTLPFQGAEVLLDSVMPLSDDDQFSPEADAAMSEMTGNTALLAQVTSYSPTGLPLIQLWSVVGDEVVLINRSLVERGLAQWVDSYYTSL
UniProt Q96F25: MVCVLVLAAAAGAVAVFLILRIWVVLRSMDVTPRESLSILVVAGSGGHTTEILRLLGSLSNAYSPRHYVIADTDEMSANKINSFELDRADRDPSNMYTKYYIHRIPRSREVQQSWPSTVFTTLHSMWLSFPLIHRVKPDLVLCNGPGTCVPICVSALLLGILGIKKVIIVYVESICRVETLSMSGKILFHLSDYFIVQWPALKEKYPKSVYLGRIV
UniProt O00170: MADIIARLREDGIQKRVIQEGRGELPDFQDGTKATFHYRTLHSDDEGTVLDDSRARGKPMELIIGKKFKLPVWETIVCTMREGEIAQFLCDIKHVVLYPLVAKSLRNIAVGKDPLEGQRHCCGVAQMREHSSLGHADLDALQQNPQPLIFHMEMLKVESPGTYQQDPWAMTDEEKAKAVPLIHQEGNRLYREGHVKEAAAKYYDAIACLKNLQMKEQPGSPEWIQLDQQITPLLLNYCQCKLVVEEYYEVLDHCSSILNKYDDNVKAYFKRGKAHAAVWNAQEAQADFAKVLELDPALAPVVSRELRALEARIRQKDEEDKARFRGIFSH
UniProt P35573: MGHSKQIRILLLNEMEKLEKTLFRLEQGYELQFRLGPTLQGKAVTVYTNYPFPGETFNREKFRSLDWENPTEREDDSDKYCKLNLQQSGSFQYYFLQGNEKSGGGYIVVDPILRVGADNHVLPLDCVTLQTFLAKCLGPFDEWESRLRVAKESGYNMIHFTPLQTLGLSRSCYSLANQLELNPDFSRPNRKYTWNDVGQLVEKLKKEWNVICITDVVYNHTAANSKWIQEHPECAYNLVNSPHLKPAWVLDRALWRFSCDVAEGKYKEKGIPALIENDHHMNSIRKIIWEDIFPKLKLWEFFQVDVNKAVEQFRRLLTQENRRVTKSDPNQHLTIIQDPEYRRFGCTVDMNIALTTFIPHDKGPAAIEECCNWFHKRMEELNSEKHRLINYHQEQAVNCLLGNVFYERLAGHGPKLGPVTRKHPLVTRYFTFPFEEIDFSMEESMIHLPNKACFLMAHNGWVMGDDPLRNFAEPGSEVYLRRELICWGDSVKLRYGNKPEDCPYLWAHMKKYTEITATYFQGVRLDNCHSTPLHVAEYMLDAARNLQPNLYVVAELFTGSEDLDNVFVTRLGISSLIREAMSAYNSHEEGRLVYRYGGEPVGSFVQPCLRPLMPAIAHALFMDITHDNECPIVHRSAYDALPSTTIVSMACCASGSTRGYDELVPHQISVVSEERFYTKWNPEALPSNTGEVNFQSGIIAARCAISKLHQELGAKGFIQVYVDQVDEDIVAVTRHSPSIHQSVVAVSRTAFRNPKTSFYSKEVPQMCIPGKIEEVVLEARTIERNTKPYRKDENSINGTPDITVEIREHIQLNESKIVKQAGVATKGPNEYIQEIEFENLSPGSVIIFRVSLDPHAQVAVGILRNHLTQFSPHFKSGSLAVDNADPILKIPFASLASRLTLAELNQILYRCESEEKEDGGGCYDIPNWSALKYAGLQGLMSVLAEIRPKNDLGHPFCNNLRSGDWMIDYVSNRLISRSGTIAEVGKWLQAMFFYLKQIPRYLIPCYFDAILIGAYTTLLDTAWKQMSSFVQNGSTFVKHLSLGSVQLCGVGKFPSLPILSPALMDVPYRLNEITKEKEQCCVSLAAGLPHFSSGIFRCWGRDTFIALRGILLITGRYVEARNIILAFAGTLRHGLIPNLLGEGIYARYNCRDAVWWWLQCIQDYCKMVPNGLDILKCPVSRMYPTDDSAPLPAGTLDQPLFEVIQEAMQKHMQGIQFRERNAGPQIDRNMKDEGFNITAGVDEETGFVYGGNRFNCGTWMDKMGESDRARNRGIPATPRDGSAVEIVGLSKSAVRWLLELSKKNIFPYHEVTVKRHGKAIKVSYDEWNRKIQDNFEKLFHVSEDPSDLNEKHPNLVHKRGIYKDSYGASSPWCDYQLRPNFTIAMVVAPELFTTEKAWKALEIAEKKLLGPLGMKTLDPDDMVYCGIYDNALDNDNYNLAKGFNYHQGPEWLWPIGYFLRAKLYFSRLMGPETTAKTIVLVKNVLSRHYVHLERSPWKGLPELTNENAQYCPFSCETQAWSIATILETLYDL
UniProt O95831, whole entry, looked up: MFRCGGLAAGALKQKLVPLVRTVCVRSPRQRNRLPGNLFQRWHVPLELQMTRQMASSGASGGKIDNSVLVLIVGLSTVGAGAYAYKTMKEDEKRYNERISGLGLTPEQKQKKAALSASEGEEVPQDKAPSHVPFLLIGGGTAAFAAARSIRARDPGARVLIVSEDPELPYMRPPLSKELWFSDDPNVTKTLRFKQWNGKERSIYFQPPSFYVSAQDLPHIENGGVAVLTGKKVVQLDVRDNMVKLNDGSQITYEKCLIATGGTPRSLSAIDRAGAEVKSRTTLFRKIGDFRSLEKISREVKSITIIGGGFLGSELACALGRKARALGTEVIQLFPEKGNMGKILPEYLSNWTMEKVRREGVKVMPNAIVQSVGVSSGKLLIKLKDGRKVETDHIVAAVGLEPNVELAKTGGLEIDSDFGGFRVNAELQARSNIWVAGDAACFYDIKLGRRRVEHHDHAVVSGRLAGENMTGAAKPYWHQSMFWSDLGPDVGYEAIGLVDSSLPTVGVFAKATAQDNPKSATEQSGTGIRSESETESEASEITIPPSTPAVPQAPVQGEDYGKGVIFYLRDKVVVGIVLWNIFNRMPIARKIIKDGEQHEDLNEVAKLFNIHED
UniProt P30520: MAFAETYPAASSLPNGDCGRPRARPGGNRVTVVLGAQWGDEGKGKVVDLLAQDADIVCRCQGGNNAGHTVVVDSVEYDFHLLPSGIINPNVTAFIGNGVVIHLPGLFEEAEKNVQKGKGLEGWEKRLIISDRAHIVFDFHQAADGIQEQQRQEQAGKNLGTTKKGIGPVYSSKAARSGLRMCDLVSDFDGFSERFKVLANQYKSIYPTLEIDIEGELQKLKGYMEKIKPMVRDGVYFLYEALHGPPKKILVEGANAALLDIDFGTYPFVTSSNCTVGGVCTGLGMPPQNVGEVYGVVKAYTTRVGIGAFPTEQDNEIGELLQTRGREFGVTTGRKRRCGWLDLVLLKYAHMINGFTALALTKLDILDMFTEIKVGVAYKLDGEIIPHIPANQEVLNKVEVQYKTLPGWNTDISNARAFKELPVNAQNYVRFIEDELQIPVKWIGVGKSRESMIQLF
UniProt P30837: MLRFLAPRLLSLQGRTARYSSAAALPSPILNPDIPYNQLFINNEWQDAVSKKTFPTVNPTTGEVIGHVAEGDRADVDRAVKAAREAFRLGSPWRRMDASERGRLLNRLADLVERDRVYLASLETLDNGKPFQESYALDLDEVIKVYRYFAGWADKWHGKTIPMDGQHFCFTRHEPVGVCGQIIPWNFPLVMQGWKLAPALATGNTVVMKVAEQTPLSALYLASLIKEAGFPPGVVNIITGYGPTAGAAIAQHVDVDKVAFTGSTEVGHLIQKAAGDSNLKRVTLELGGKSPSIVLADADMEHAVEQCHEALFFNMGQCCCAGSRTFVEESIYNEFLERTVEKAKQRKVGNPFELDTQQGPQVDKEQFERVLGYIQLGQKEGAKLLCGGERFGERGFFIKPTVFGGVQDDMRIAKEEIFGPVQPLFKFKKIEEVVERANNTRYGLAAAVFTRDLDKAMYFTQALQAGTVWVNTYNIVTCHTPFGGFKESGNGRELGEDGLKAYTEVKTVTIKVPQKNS
UniProt P09972: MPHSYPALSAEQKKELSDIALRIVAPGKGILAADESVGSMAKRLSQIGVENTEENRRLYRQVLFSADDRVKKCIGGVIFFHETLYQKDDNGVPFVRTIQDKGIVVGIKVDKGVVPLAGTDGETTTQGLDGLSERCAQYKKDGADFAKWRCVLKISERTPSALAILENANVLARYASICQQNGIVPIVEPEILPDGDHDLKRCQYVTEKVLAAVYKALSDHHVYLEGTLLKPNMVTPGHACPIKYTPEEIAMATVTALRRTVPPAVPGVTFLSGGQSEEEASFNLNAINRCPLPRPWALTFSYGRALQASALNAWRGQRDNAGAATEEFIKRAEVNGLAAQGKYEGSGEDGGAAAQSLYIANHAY
UniProt Q13686: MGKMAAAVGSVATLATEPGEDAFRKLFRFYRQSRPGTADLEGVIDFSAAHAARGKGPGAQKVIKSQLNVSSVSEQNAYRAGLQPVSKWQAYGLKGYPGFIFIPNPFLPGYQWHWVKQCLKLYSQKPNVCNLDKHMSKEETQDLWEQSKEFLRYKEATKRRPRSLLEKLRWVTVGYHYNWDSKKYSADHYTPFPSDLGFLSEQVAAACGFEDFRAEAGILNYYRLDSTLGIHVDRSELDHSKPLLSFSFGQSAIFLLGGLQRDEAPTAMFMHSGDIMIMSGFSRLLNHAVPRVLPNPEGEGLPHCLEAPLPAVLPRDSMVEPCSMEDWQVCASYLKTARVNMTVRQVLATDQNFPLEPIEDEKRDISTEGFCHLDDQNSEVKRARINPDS
UniProt Q6NS38: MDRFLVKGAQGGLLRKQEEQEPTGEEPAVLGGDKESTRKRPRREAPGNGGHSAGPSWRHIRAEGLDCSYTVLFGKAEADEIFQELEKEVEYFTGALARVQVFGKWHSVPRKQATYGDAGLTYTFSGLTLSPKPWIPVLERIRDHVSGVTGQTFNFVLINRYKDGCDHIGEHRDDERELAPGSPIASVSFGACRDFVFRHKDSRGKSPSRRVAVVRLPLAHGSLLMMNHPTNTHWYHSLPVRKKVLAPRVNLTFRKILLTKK
UniProt P27144: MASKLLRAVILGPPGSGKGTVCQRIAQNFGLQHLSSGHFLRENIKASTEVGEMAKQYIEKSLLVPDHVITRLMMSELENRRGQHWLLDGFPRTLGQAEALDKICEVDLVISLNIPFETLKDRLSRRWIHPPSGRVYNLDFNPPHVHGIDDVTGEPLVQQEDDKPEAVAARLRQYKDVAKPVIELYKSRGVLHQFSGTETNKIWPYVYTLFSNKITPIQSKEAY
UniProt Q96BJ3: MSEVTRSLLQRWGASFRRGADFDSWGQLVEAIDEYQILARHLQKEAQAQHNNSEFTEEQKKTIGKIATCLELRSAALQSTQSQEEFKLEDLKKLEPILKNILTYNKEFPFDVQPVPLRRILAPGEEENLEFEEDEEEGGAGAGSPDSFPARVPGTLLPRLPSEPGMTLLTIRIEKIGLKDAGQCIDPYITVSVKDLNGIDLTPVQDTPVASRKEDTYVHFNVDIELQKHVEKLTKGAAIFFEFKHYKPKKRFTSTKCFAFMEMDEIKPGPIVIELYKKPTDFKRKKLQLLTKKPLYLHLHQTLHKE

How the values were obtained:
Assay in all cases: log2 fold change, soluble protein after heating vs DMSO (PISA); higher = thermal stabilisation; K562 cells, 10 uM, 30 min; active = over 0.2 and 3.5 SD of the protein, either way, in both replicates (recomputed)
[1] = compound: Cc1ccc(NC(=O)c2ccc(CN3CC[C@H](N(C)C)C3)c(C(F)(F)F)c2)cc1Nc1nccc(-c2cncnc2)n1 [bafetinib]
In short: (§1)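 K562 cells at 2×10^6 cells/mL were treated for 30 min with 10 μM compound, and aliquots were heated for 3 min over 48°C-58°C before pooling. Extraction used PBS with 0.5% NP-40 at 4°C, and soluble protein was the supernatant after 21,000xg for 90 min, measured by TMTpro 16plex LC-MS/MS with channel sums equalised. Thermal stability values, relative to control samples and from duplicates, are log2 fold changes.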

[2] = compound: Cc1cccc(CC(=O)N2CCc3c2ccc(-c2cn(C)c4ncnc(N)c24)c3F)n1
In short: as §1

[3] = compound: Cc1cn(-c2cc(NC(=O)c3ccc(C)c(Nc4nccc(-c5cccnc5)n4)c3)cc(C(F)(F)F)c2)cn1 [nilotinib]
In short: as §1

[4] = compound: Cc1nc(Nc2n[nH]c3c2CN(C(=O)N[C@H](CN(C)C)c2ccccc2)C3(C)C)c2sccc2n1
In short: as §1

[5] = compound: Cc1nc(Nc2ncc(C(=O)Nc3c(C)cccc3Cl)s2)cc(N2CCN(CCO)CC2)n1 [dasatinib]
In short: as §1

[6] = compound: Cc1ncc(-c2ccnc(Nc3ccc(S(C)(=O)=O)cc3)n2)n1C(C)C
In short: as §1

[7] = compound: Cn1cc(-c2ccc3c(c2)CCN3C(=O)Cc2cccc(C(F)(F)F)c2)c2c(N)ncnc21
In short: as §1

[8] = compound: Cn1cc(-c2ccc3nnc(C(F)(F)c4ccc5ncccc5c4)n3n2)cn1
In short: as §1

[9] = compound: Cn1cncc1[C@@](N)(c1ccc(Cl)cc1)c1ccc2c(c1)c(-c1cccc(Cl)c1)cc(=O)n2C [tipifarnib]
In short: as §1

[10] = compound: FC(F)(F)c1ccc(/C=C/c2nc(COc3ccc(CCCCn4ccnn4)cc3)co2)cc1 [mubritinib]
In short: as §1

[11] = compound: NC(=O)Nc1cc(-c2cccc(F)c2)sc1C(=O)N[C@H]1CCCNC1
In short: as §1

[12] = compound: NC(=O)c1cnc(N[C@@H]2CCCC[C@@H]2N)nc1Nc1cccc(-n2nccn2)c1
In short: as §1

[13] = compound: NC1(c2ccc(-c3nc4ccn5c(=O)[nH]nc5c4cc3-c3ccccc3)cc2)CCC1
In short: as §1

[14] = compound: NCC(=O)Nc1ccc(-n2nc(C(F)(F)F)cc2-c2ccc3c(ccc4ccccc43)c2)cc1
In short: as §1

[15] = compound: Nc1ccccc1NC(=O)c1ccc(CNC(=O)OCc2cccnc2)cc1 [entinostat]
In short: as §1

[16] = compound: O=C(CCCCCCC(=O)Nc1ccccc1)NO [vorinostat]
In short: as §1

[17] = compound: O=C(CCCCCCNC(=O)c1cnc(N(c2ccccc2)c2ccccc2Cl)nc1)NO [citarinostat]
In short: as §1

[18] = compound: O=C(O)c1ccc2c(c1)nc(Nc1cccc(Cl)c1)c1ccncc12 [silmitasertib]
In short: as §1

[19] = compound: O=C1NC(=O)C(c2cnc3ccccn23)=C1c1cn2c3c(cc(F)cc13)CN(C(=O)N1CCCCC1)CC2
In short: as §1

[20] = compound: c1cc(OCCN2CCCCC2)cc(-c2n[nH]c3ccc(-c4nnc[nH]4)cc23)c1
In short: as §1

Target | log2 fold change [1] | log2 fold change [2] | log2 fold change [3] | log2 fold change [4] | log2 fold change [5] | log2 fold change [6] | log2 fold change [7] | log2 fold change [8] | log2 fold change [9] | log2 fold change [10] | log2 fold change [11] | log2 fold change [12] | log2 fold change [13] | log2 fold change [14] | log2 fold change [15] | log2 fold change [16] | log2 fold change [17] | log2 fold change [18] | log2 fold change [19] | log2 fold change [20]
AKR1A1 (UniProt P14550) | inactive: 0.001 | inactive: -0.001 | inactive: 0.005 | inactive: -0.006 | inactive: -0.054 | inactive: -0.016 | inactive: 0.03 | inactive: -0.007 | inactive: -0.048 | inactive: -0.028 | inactive: -0.013 | inactive: -0.008 | inactive: -0.064 | inactive: -0.025 | inactive: -0.008 | inactive: 0.008 | inactive: 0.048 | inactive: -0.009 | inactive: -0.049 | inactive: 0.017
AKAP1 (UniProt Q92667) | inactive: 0.021 | inactive: 0.06 | inactive: 0.031 | inactive: -0.217 | inactive: 0.014 | inactive: -0.013 | inactive: -0.006 | inactive: -0.033 | inactive: 0.042 | inactive: -0.074 | inactive: -0.063 | inactive: -0.05 | inactive: 0.017 | inactive: 0.003 | inactive: 0.014 | inactive: 0.024 | inactive: -0.019 | inactive: 0.069 | inactive: 0.118 | inactive: -0.025
ALG14 (UniProt Q96F25) | inactive: -0.092 | active: 0.461 | inactive: 0.061 | inactive: 0.026 | inactive: 0.003 | inactive: -0.033 | inactive: 0.014 | inactive: 0.126 | inactive: -0.214 | inactive: 0.003 | – | inactive: 0.018 | inactive: -0.118 | inactive: -0.081 | – | inactive: 0.29 | inactive: 0.028 | inactive: 0.076 | inactive: 0.061 | inactive: -0.123
AHNAK (UniProt Q09666) | inactive: 0.004 | inactive: -0.052 | inactive: 0.034 | inactive: -0.007 | inactive: 0.02 | inactive: 0.021 | inactive: -0.044 | inactive: -0.01 | inactive: 0.03 | inactive: 0.003 | inactive: -0.026 | inactive: 0.055 | inactive: 0.04 | inactive: 0.001 | inactive: -0.069 | inactive: -0.058 | inactive: -0.003 | inactive: 0.018 | inactive: -0.007 | inactive: -0.016
AKR1C3 (UniProt P42330) | inactive: 0.018 | inactive: -0.03 | inactive: 0.025 | inactive: 0.004 | inactive: -0.038 | inactive: 0.078 | inactive: 0.068 | active: 0.557 | active: 0.862 | inactive: -0.147 | inactive: 0.119 | inactive: 0.064 | inactive: 0.235 | inactive: -0.032 | inactive: 0.106 | inactive: -0.058 | inactive: 0.049 | inactive: 0.126 | inactive: 0.211 | inactive: 0.154
AIP (UniProt O00170) | inactive: 0.017 | inactive: 0.02 | inactive: -0.062 | inactive: -0.009 | inactive: -0.144 | inactive: 0.056 | inactive: 0.031 | inactive: 0.012 | inactive: -0.058 | inactive: 0.015 | inactive: -0.004 | inactive: 0.011 | inactive: -0.128 | inactive: 0.018 | inactive: 0.084 | inactive: 0.076 | inactive: 0.105 | inactive: 0.038 | inactive: 0.031 | inactive: 0.036
AGL (UniProt P35573) | inactive: 0.149 | inactive: -0.018 | inactive: 0.293 | inactive: -0.093 | inactive: 0 | inactive: -0.161 | inactive: -0.119 | inactive: -0.138 | inactive: 0.199 | inactive: 0.037 | inactive: -0.063 | inactive: -0.07 | inactive: 0.085 | inactive: 0.003 | inactive: 0.04 | inactive: -0.038 | inactive: -0.05 | inactive: 0.04 | inactive: 0.034 | inactive: -0.144
ALDH1L2 (UniProt Q3SY69) | inactive: -0.083 | inactive: 0 | inactive: -0.104 | inactive: -0.136 | inactive: -0.117 | inactive: -0.019 | inactive: 0.045 | inactive: 0.109 | inactive: -0.025 | inactive: -0.03 | inactive: 0.015 | inactive: -0.003 | inactive: -0.094 | inactive: 0.063 | inactive: 0 | inactive: 0.069 | inactive: -0.136 | inactive: 0.018 | inactive: -0.031 | inactive: -0.105
AIFM1 (UniProt O95831) | inactive: -0.039 | inactive: -0.038 | inactive: 0.02 | inactive: -0.002 | inactive: 0.029 | inactive: -0.012 | inactive: 0.026 | inactive: 0.031 | inactive: -0.02 | inactive: 0.023 | inactive: 0.013 | inactive: -0.03 | inactive: -0.007 | inactive: -0.021 | inactive: -0.014 | inactive: -0.022 | inactive: -0.018 | inactive: -0.02 | inactive: 0.011 | inactive: -0.008
ADSS2 (UniProt P30520) | inactive: 0.002 | inactive: 0.019 | inactive: 0.053 | inactive: -0.001 | inactive: 0.017 | inactive: -0.029 | inactive: 0.031 | inactive: 0.029 | inactive: -0.024 | inactive: 0.145 | inactive: -0.05 | inactive: -0.056 | inactive: -0.025 | inactive: -0.035 | inactive: -0.032 | inactive: -0.029 | inactive: 0.004 | inactive: -0.05 | inactive: -0.083 | inactive: 0.011
ALDH1B1 (UniProt P30837) | inactive: 0.03 | inactive: -0.018 | inactive: 0.003 | inactive: 0.014 | inactive: -0.113 | inactive: 0.131 | inactive: 0.022 | inactive: 0.034 | inactive: -0.018 | inactive: 0.059 | inactive: 0 | inactive: -0.039 | inactive: -0.065 | inactive: -0.054 | inactive: -0.019 | active: 0.281 | inactive: 0.051 | inactive: -0.037 | inactive: -0.015 | inactive: 0.058
ALDOC (UniProt P09972) | inactive: -0.036 | inactive: -0.023 | inactive: -0.006 | inactive: 0.013 | inactive: 0.011 | inactive: 0.001 | inactive: 0.025 | inactive: -0.009 | inactive: -0.038 | inactive: 0.048 | inactive: 0.046 | inactive: -0.02 | inactive: 0.028 | inactive: 0.032 | inactive: -0.022 | inactive: -0.022 | inactive: 0.008 | inactive: 0.027 | inactive: -0.025 | inactive: -0.042
ALKBH1 (UniProt Q13686) | inactive: -0.024 | inactive: -0.175 | inactive: 0.203 | inactive: -0.26 | inactive: -0.068 | inactive: -0.051 | inactive: -0.033 | inactive: -0.204 | inactive: 0.184 | – | – | inactive: -0.193 | – | inactive: 0.144 | – | inactive: 0.038 | – | – | inactive: 0.089 | –
ALKBH2 (UniProt Q6NS38) | inactive: 0.122 | inactive: -0.005 | inactive: 0.034 | inactive: 0.059 | inactive: 0.04 | inactive: -0.142 | inactive: -0.201 | inactive: -0.028 | inactive: 0.177 | inactive: -0.027 | inactive: -0.037 | inactive: 0.087 | inactive: 0.293 | inactive: 0.04 | inactive: -0.166 | inactive: 0.184 | inactive: -0.17 | inactive: -0.005 | inactive: 0.106 | inactive: -0.029
AK4 (UniProt P27144) | inactive: -0.05 | inactive: 0.021 | inactive: -0.008 | inactive: 0.018 | inactive: -0.016 | inactive: -0.004 | inactive: 0.077 | inactive: 0.069 | inactive: 0.003 | inactive: -0.005 | inactive: -0.025 | inactive: -0.011 | inactive: -0.054 | inactive: -0.097 | inactive: 0.056 | inactive: -0.009 | inactive: 0.03 | inactive: 0.006 | inactive: -0.039 | inactive: -0.04
AIDA (UniProt Q96BJ3) | inactive: -0.016 | inactive: 0.073 | inactive: 0.012 | inactive: -0.065 | inactive: -0.104 | inactive: -0.092 | inactive: 0 | inactive: -0.001 | inactive: 0.004 | inactive: -0.025 | inactive: -0.056 | inactive: -0.002 | inactive: 0.003 | inactive: -0.073 | inactive: 0.029 | inactive: 0.015 | inactive: 0.043 | inactive: 0.057 | inactive: -0.069 | inactive: -0.024

Four entries from above, as tab-separated lines.
Target	log2 fold change [1]	log2 fold change [2]	log2 fold change [3]	log2 fold change [4]	log2 fold change [5]	log2 fold change [6]	log2 fold change [7]	log2 fold change [8]	log2 fold change [9]	log2 fold change [10]	log2 fold change [11]	log2 fold change [12]	log2 fold change [13]	log2 fold change [14]	log2 fold change [15]	log2 fold change [16]	log2 fold change [17]	log2 fold change [18]	log2 fold change [19]	log2 fold change [20]
ALDOC (UniProt P09972)	inactive: -0.036	inactive: -0.023	inactive: -0.006	inactive: 0.013	inactive: 0.011	inactive: 0.001	inactive: 0.025	inactive: -0.009	inactive: -0.038	inactive: 0.048	inactive: 0.046	inactive: -0.02	inactive: 0.028	inactive: 0.032	inactive: -0.022	inactive: -0.022	inactive: 0.008	inactive: 0.027	inactive: -0.025	inactive: -0.042
ALKBH1 (UniProt Q13686)	inactive: -0.024	inactive: -0.175	inactive: 0.203	inactive: -0.26	inactive: -0.068	inactive: -0.051	inactive: -0.033	inactive: -0.204	inactive: 0.184	–	–	inactive: -0.193	–	inactive: 0.144	–	inactive: 0.038	–	–	inactive: 0.089	–
ALKBH2 (UniProt Q6NS38)	inactive: 0.122	inactive: -0.005	inactive: 0.034	inactive: 0.059	inactive: 0.04	inactive: -0.142	inactive: -0.201	inactive: -0.028	inactive: 0.177	inactive: -0.027	inactive: -0.037	inactive: 0.087	inactive: 0.293	inactive: 0.04	inactive: -0.166	inactive: 0.184	inactive: -0.17	inactive: -0.005	inactive: 0.106	inactive: -0.029
AK4 (UniProt P27144)	inactive: -0.05	inactive: 0.021	inactive: -0.008	inactive: 0.018	inactive: -0.016	inactive: -0.004	inactive: 0.077	inactive: 0.069	inactive: 0.003	inactive: -0.005	inactive: -0.025	inactive: -0.011	inactive: -0.054	inactive: -0.097	inactive: 0.056	inactive: -0.009	inactive: 0.03	inactive: 0.006	inactive: -0.039	inactive: -0.04
